This is an account of results in paper PMC11973282 (Frontiers in Oncology, 2025).

A value given as a limit tells only on which side of the number the result lay.

The series can be described thus: general procedure: Fmoc solid-phase peptide synthesis; Wong's polymer; 1,3-Diisopropylcarbodiimide with hydroxybenzotriazole. Particulars: whole synthesis.

In turn, TKDNNLLGRFELSG-Beta-Ala-RGD showed an isolated yield of at least 90%. For the setting “RP-HPLC, Waters Delta-Pak analytical column”, the “final purity (method not given)” value was at least 90%.
